According to PMC2572193, “Structural Analysis of the Interactions Between Paxillin LD Motifs and α-Parvin” (Structure(London, England:1993), 2008):
No constants are given. Whether binding was seen depends on the method and setting. Some binding calls cover weakened binding; strength is not graded here.

T1: α-parvin-CHC (C-terminal calponin homology domain fragment of human α-parvin, residues 242-372) (human) (UniProt Q9NVD7)
T1 sequence: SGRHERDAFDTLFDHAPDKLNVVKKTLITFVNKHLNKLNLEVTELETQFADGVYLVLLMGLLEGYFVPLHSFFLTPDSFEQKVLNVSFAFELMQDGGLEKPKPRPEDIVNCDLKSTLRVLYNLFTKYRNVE

B1: paxillin LD1 peptide (human paxillin residues 1-20) (peptide)
peptide: MDDLDALLADLESTTSHISK
notes: paxillin, human, LD1 motif, residues 1-20; source: synthetic peptide, bought: Severn Biotech

Assays:
[1] = molecular target: T1, α-parvin-CHC (C-terminal calponin homology domain fragment of human α-parvin, residues 242-372) (human); test: crystal structure; cocrystals of α-parvin-CHC with a 2-fold molar excess of LD peptide, sitting drops, 13°C; molecular replacement with the apo structure; both purified
[2] = molecular target: T1, α-parvin-CHC (C-terminal calponin homology domain fragment of human α-parvin, residues 242-372) (human); test: NMR titration; 1H-15N HSQC of 235 μM 15N-enriched α-parvin-CHC titrated with LD peptide; 50 mM sodium phosphate, 100 mM NaCl, 2 mM DTT, 5% D2O, pH 6.9, 25°C; global fit to a single-site model; both purified

Binder | binding [1] | binding [2]
B1 | binds | –
PGSQLDSMLGSLQSDLNKLG [paxillin LD5 peptide (human paxillin residues 296-315)] | – | binds weakly
